“Also recorded” adds a separate entry of the source.
Test system: HL-60 cells
Experiment: Therapeutic Potential (T.P.) = cellular activity/calcemic activity
Set-up: species or system human
Settings: relative to 1,25-(OH)2 D3

Structure (SMILES) | therapeutic potential, in words
C[C@@H](CCCC(C)(C)O)[C@H]1CC[C@@H]2/C(=C/C=C3C[C@@H](O)C[C@H](O)C3)CCC[C@@]21C [[29], 14-epi-20-epi-19-nor-1α,25-dihydroxyvitamin D3] | enhanced therapeutic potential relative to the natural hormone; also recorded: exceeding the natural hormone by two orders of magnitude
C[C@H](CCCC(C)(C)O)[C@H]1CC[C@@H]2/C(=C/C=C3C[C@@H](O)C[C@H](O)C3)CCC[C@@]21C [[27], 14-epi-19-nor-1α,25-dihydroxyvitamin D3] | lower therapeutic potential; also recorded: enhanced therapeutic potential relative to the natural hormone

Source: patent US5936105A, “14-EPI-19-nor-vitamin D compounds and methods” (Tetrionics, Inc., priority 1998, dated 1999)
